According to publication PMC5118709, “Identification of Polo-like kinase 1 interaction inhibitors using a novel cell-based assay” (Scientific Reports, 2016):
These are yes or no findings as the source states them, for the method shown. For part of these data: Binding seen in cells or lysates may run through a third protein. Some results given as binding are weak or reduced against the parent protein; the word gives no strength. For part of these data: Where a sequence is shown, tags or fusion partners need not be part of it.

Columns and labels:
[1] = molecular target: T1, FITC-GPMQS{T}PLNG (FITC-labeled PBD-binding phosphopeptide); test: fluorescence polarisation; His-PBD with the phosphopeptide, after dialysis against 50 mM NaH2PO4 pH 8, 400 mM NaCl, 1 mM EDTA, 10% glycerol, 0.01% NP-40; data not shown; both purified
T1 sequence (peptide, {T}, phosphorylated threonine (phosphopeptide); FITC on the N-terminus): GPMQSTPLNG

[2] = molecular target: human Plk1 C-terminally fused to RLucII (Plk1-Luc) (human) (UniProt P53350); test: FRET or BRET; BRET in live HEK293T cells; transient transfection with a constant amount of RLucII plasmid (40 ng) and increasing GFP10 plasmid (0-400 ng), read 48 h later in Tyrode solution with coelenterazine 400a; also a clonal stable Plk1-Luc/GFP-Map line
[3] = molecular target: human Plk1 N-terminally fused to GFP10 (GFP-Plk1) (human) (UniProt P53350); test: co-IP; LUMIER: HEK293T cells stably expressing Map-Luc/GFP-Plk1, treated 2 h with compounds (10-25 uM; Cpd 16, TQ, PPG, BI2536 and others) or DMSO, lysed in IP buffer (20 mM Tris pH 7.5, 150 mM NaCl, 0.5% NP-40); GFP-Plk1 precipitated with anti-GFP and protein A magnetic beads, co-purified Map-Luc read by luminescence

## His-PBD_(326-603) (from UniProt P53350 326-603) (domain or fragment)
[1]
  binding: binds

B1: Drosophila Map205 fragment 254-416 N-terminally fused to GFP10 (GFP-Map) (domain or fragment, UniProt P23226 254-416)
chain: PLPAAEDPLPGVQPRPFLPGGTLDDLVAESPRKEFARINMDGIAVPDEREFDIEADMRPHELEQESDTFGAGHLEMQLLNGIGTADQAALRDVLDHGPETSVDMELPLDQVPNDADIMKQSIYAEHNSSIEDILNSVQPLPIQTCDDKELIHVEEKEHVSKSP
[2]
  binding: binds

B2: Drosophila Map205 fragment 254-416 C-terminally fused to RLucII (Map-Luc) (domain or fragment, UniProt P23226 254-416)
chain: B1 chain
[3]
  binding: binds
